Test results: PubChem BioAssay AID504834 (National Center for Advancing Translational Sciences (NCATS), 2011)
Where “and” joins values, the source holds several entries; their conditions need not be identical. Identical values can stand only once. Screen size: about 320,000 compounds; about 22,000 (6.9%) were called active. This list was built around the results that the source calls inconclusive (neither active nor inactive); the mix of calls is not that of the screen. The call rests on the fitted dose curve; in most records, active means well fitted inhibition curve with a large enough effect; inconclusive means small, poorly fitted or top-dose-only effect, or another doubt; inactive means no such curve, though single readings can be large or run the other way. Potencies beside an inconclusive call are fits to weak or partial responses and may not hold up.
On the % scale 0 is the no-effect control and ±100 the full control effect; potency means the concentration at half of the fitted maximal effect.

Experiment: Primary qHTS for delayed death inhibitors of the malarial parasite plastid, 96 hour incubation
Details: P. falciparum luciferase reporter growth; series mostly up to 28.7 µM; activity change, negative = inhibition: at the top concentration
In short: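 Infected RBCs, 2% Hct / 0.05% parasitemia final; luciferase-reporter P. falciparum; cpd 96 h, 37 C, 5% CO2; luciferase detection reagent; luminescence.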
For `O=C(NC1CCS(=O)(=O)C1)c1ccc(S(=O)(=O)N2CCCCC2)cc1` (stereo not given), the “activity change, negative = inhibition” value was inactive: -3.02%. With `CN(Cc1c(C(=O)N2CCCCCCC2)nc2ccc(Cl)cn12)C1CCOC1` (stereo not given) the “activity change, negative = inhibition” value was inactive: -1.03%. With `C=CCn1c(SCc2csc(-c3ccc(C)cc3)n2)nnc1-c1ccccc1OC` the Potency was inconclusive: 14.7 µM [inhibitor, single point]. With `COc1ccc(CC(=O)Nc2ccc(/C(C)=N\NC(=O)c3ccc(Br)o3)cc2)cc1` the Potency was inconclusive: 10.4 µM [inhibitor, partial curve]. For `COc1ccccc1NS(=O)(=O)c1cc(NC(=O)c2cccs2)ccc1N1CCCC1`, the Potency was inconclusive: 10.4 µM [inhibitor, single point]. With `CCOC(=O)NN=C1c2ccccc2-c2ccccc21` the Potency was active: 10.4 µM. For `O=C(COCc1cc(-c2ccc3c(c2)OCO3)on1)N1CCCCC1`, the “activity change, negative = inhibition” value was inactive: 45.8%. In the case of `COc1ccc(CC2(CO)CCN(Cc3cnn(-c4ccc(F)cc4)c3)CC2)cc1`, the Potency is reported as inconclusive: 10.4 µM [inhibitor, partial curve, poor fit]. With `O=C(COc1ccccc1)N1CCN(CC(O)COc2ccccc2)CC1` (stereo not given) the Potency was active: 14.7 µM. For `COc1ccc(/C=C2/CCc3ccccc3C2=O)cc1CN1CCOCC1`, the “activity change, negative = inhibition” value was inactive: -18.2%. In the case of `CN1CCN(C(=O)CN(c2cccc(Cl)c2)S(=O)(=O)c2ccccc2)CC1`, the Potency is reported as inconclusive: 0.0147 µM [inhibitor, full curve, poor fit]. For `CC(=O)N1c2ccc(S(=O)(=O)N3CCCCC3)cc2CC1C(=O)Nc1ccccc1C(F)(F)F` (stereo not given), the Potency was inconclusive: 13.1 µM [inhibitor, partial curve]. With `Cc1ccccc1NC(=O)CSc1nn2c(=O)c(C)nnc2s1` the Potency was inconclusive: 9.28 µM [inhibitor, partial curve, poor fit]. In the case of `Cc1ccc(C(=O)N/N=C/c2ccc(-c3ccc(Br)cc3[N+](=O)[O-])o2)o1`, the Potency is reported as inconclusive: 5.22 µM [inhibitor, partial curve, poor fit]. In the case of `O=C(NCCCSc1ccccc1)c1cnc(Cl)c(Cl)c1`, the “activity change, negative = inhibition” value is reported as inactive: 20.4%. With `O=C(Cn1c(CN2CCCCC2)nc2ccccc2c1=O)NCc1ccco1` the “activity change, negative = inhibition” value was inactive: 88.3%. With `COc1cc(/C=N/NC(=O)c2nnn(-c3nonc3N)c2C(C)C)ccc1OCc1ccc(F)cc1` the Potency was inconclusive: 13.1 µM [inhibitor, single point]. With `O=[n+]1c2c(n([O-])c3c1CCCC3)CCCC2` the Potency was inconclusive: 8.28 µM [inhibitor, single point]. In the case of `COc1ccccc1NC(=O)c1ccc(S(=O)(=O)N2CCCC(C)C2)cc1` (stereo not given), the “activity change, negative = inhibition” value is reported as inactive: 19.9%. In the case of `CC1CCCN(C(=O)Cc2cccc3ccccc23)C1` (stereo not given), the Potency is reported as inconclusive: 10.4 µM [inhibitor, single point]. In the case of `CCOc1ccc2[nH]c(=O)c(CN(CCO)C(=O)c3ccc(Br)cc3)cc2c1`, the “activity change, negative = inhibition” value is reported as inactive: 6.64%. With `C=CCc1ccccc1OCC(O)CN(CC)CC` (stereo not given) the Potency was inconclusive: 18.5 µM [inhibitor, single point]. In the case of `CN(Cc1ccccc1F)C(=O)c1ccccc1Sc1ccccc1C#N`, the Potency is reported as inconclusive: 18.5 µM [inhibitor, partial curve, poor fit]. With `O=C(NCCCN1CCOCC1)c1ccc2nc(Cc3ccccc3F)oc2c1` the “activity change, negative = inhibition” value was inactive: 8.47%. With `COCCNC(=O)c1ccc2c(=O)n(CCCN3CCCC3=O)c(=S)[nH]c2c1` the Potency was inconclusive: 9.28 µM [inhibitor, partial curve, poor fit]. With `COC(=O)Cc1ccc(NC(=S)NNC(=O)c2ccccc2Br)cc1` the Potency was inconclusive: 2.62 µM [inhibitor, partial curve, poor fit]. For `COc1cccc2cc(-c3nnc(-c4ccccc4)o3)c(=O)oc12`, the Potency was active: 8.28 µM. For `Cc1oc(-c2ccc(Cl)cc2)nc1CN1CCC(C(=O)NCCCN2CCOCC2)CC1`, the Potency was inconclusive: 0.329 µM [inhibitor, partial curve, poor fit]. For `Cc1cc(C)nc(SCCN2CCOCC2)n1`, the Potency was inconclusive: 0.329 µM [inhibitor, full curve, poor fit]. With `COc1ccc(C(=O)OC(C)CN2CCOCC2)cc1OC` (stereo not given) the Potency was inconclusive: 10.4 µM [inhibitor, single point]. For `Cc1ccc(-n2cccc2/C=C2/C(=N)N3C(=NC2=O)SN=C3S(C)(=O)=O)cc1`, the Potency was inconclusive: 5.86 µM [inhibitor, partial curve, poor fit]. In the case of `COc1ccccc1Oc1nc([N+](=O)[O-])nn1CC(N)=O`, the Potency is reported as inconclusive: 10.4 µM [inhibitor, partial curve]. In the case of `COCCn1cc(C(=O)c2ccccc2OCC(=O)Nc2cc(C)on2)cc(C#N)c1=O`, the “activity change, negative = inhibition” value is reported as inactive: 2.42%. In the case of `Cc1cccc2c1NC1(CCCC1)CC2C` (stereo not given), the Potency is reported as inconclusive: 18.5 µM [inhibitor, single point]. For `Cc1ccc(-c2c(C(=O)N/N=C/c3cccnc3)nnn2-c2nonc2N)cc1`, the Potency was inconclusive: 5.86 µM [inhibitor, partial curve, poor fit]. In the case of `Cc1ccccc1NC(=S)NC(C)CCc1ccccc1` (stereo not given), the Potency is reported as active: 13.1 µM. In the case of `COc1cc(OC)cc(C(=O)NC(c2ccccc2)c2ccccc2)c1`, the Potency is reported as active: 11.7 µM. In the case of `C=CCn1c(CCc2ccccc2)nnc1SCC(N)=O`, the Potency is reported as inconclusive: 14.7 µM [inhibitor, single point]. For `COc1cc(NC(=O)c2ccco2)c(OC)cc1NC(=O)Nc1ccccc1Cl`, the Potency was inconclusive: 2.62 µM [inhibitor, single point]. With `CCn1c(=O)c(C(=O)NCc2ccccc2Cl)c(O)c2ccccc21` the Potency was inconclusive: 10.4 µM [inhibitor, single point]. For `CN1CCN(c2nc(-c3ccc(Cl)s3)cs2)CC1`, the “activity change, negative = inhibition” value was inactive: 65.7%. For `Cc1oc(-c2cc(F)ccc2F)nc1CN1CCN(C)C(=O)[C@@H]1C`, the Potency was inconclusive: 16.5 µM [inhibitor, partial curve, poor fit]. With `COCCNc1nc(-c2cc(-c3ccc(Cl)cc3)on2)cc(C(C)C)n1` the “activity change, negative = inhibition” value was inactive: -7.05%. For `Cc1ccc(S(=O)(=O)N2Cc3ccccc3CC2C(=O)NC(C)(C)C)cc1` (stereo not given), the Potency was active: 11.7 µM. For `Cc1cccc(OCC(=O)Nc2nnc(S(=O)(=O)N3CCCCCC3)s2)c1`, the Potency was active: 11.7 µM. With `O=C(Nc1ccnn1C1CCN(Cc2c(F)cccc2Cl)CC1)C1CCCC1` the Potency was inconclusive: 18.5 µM [inhibitor, single point]. With `CCSc1nc(N2CCOCC2)c2c(c1C#N)CC(C)(C)N(C)C2` the Potency was active: 5.22 µM. For `CN(C(=O)c1ccccc1C(=O)OCC(=O)Nc1cccc(Br)c1)c1ccccc1`, the Potency was inconclusive: 6.57 µM [inhibitor, partial curve]. For `Cc1nn(Cc2ccccc2)c(C)c1C(=O)NCc1ccccc1F`, the Potency was inconclusive: 0.465 µM [inhibitor, single point]. With `O=c1c2ccccc2oc2ccc(NCCCN3CCOCC3)cc12` the “activity change, negative = inhibition” value was inactive: 216%. With `CNC(=S)N1CCN(c2ccc(Cl)c(Cl)c2)CC1` the “activity change, negative = inhibition” value was inactive: -1.34%. With `CCCCCCCCCCCCCCCC[N+](C)(C)CC` the Potency was active: 953 nM and active: 2.62 µM. For `CCc1ccc2c(c1)C1(NN=C(c3ccccc3)S1)C(=O)N2` (stereo not given), the Potency was inconclusive: 0.928 µM [inhibitor, partial curve, poor fit]. For `Cc1ccc(C2(C(F)(F)F)N=C3Sc4cc(C)cc(C)c4N3C(=O)N2)cc1` (stereo not given), the Potency was inconclusive: 0.0131 µM [inhibitor, full curve, poor fit]. For `Cc1ccccc1OCC(=O)Nc1ccc(N2CCOCC2)cc1N1CCOCC1`, the Potency was inconclusive: 11.7 µM [inhibitor, partial curve, poor fit]. In the case of `O=C(NCC(c1ccco1)N1CCc2ccccc2C1)c1ccccc1` (stereo not given), the “activity change, negative = inhibition” value is reported as inactive: 55.1%. With `CCCCOc1ccc(Cl)cc1CSc1nnc(C)n1N` the Potency was inconclusive: 10.4 µM [inhibitor, single point]. In the case of `Cc1cc(OCC(=O)NC2CCS(=O)(=O)C2)c2c3c(c(=O)oc2c1)CCC3` (stereo not given), the Potency is reported as inconclusive: 10.4 µM [inhibitor, single point]. With `CCOc1cc(-c2cc(-c3ccc(OC)cc3)nc(N)c2C#N)ccc1O` the Potency was inconclusive: 1.65 µM [inhibitor, full curve]. For `O=C(CC1CS(=O)(=O)CC1CC(=O)Oc1ccccc1F)Oc1ccccc1F` (stereo not given), the “activity change, negative = inhibition” value was inactive: 6.29%. For `COc1ccc(Cl)cc1C(=O)n1nc(C)cc1C`, the “activity change, negative = inhibition” value was inactive: -7.69%. In the case of `CC[C@H](C)[C@H](NS(=O)(=O)c1ccc(C)cc1)C(=O)N1CCC(C(=O)N[C@@H](C)C(=O)O)CC1`, the Potency is reported as inconclusive: 1.47 µM [inhibitor, partial curve, poor fit]. For `Nc1ncc([N+](=O)[O-])c(Oc2ccccc2F)n1`, the Potency was inconclusive: 18.5 µM [inhibitor, partial curve, poor fit]. In the case of `OCCN(Cc1ccccc1)C(=S)Nc1ccc(F)cc1`, the Potency is reported as inconclusive: 1.31 µM [inhibitor, partial curve, poor fit]. With `Cc1ccc(N(CC(=O)N/N=C/c2cc(C)n(-c3ccccc3)c2C)S(C)(=O)=O)c(C)c1` the Potency was inconclusive: 18.5 µM [inhibitor, single point]. In the case of `Cc1cc(Cl)ccc1OCC(O)CNCCc1ccc(S(N)(=O)=O)cc1` (stereo not given), the Potency is reported as inconclusive: 11.7 µM [inhibitor, single point]. For `Cc1cccc(C)c1N=Cc1c(O)n(-c2nccs2)c(=O)c2ccccc12`, the Potency was inconclusive: 10.4 µM [inhibitor, single point]. In the case of `O=C(COc1ccc([N+](=O)[O-])cc1)Nc1cc(S(=O)(=O)N2CCCCC2)ccc1N1CCCCC1`, the Potency is reported as inconclusive: 2.62 µM [inhibitor, full curve]. For `O=C(NC(=S)N1CCN(Cc2ccc3c(c2)OCO3)CC1)c1cccc(Br)c1`, the “activity change, negative = inhibition” value was inactive: -73.3%. For `O=[N+]([O-])c1cccc(/C(=N/N=C/c2ccccc2Br)C23CN4CN(CN(C4)C2)C3)c1`, the Potency was inconclusive: 0.415 µM [inhibitor, full curve, poor fit].
